Measured values published in publication PMC6508535.

What was measured:
[1] = biological target: T1, C-terminal half of AtLUX (AtLUX-C, a.a. 144-324), yeast two-hybrid fusion (Arabidopsis thaliana) (UniProt Q9SNB4); test: two-hybrid; DBD fusions in S. cerevisiae Y187 and AD fusions in AH109, mated; diploids replica plated on CSM -Leu -Trp -His with extra adenine and 2 mM 3AT; 4 days at 30°C
T1 sequence: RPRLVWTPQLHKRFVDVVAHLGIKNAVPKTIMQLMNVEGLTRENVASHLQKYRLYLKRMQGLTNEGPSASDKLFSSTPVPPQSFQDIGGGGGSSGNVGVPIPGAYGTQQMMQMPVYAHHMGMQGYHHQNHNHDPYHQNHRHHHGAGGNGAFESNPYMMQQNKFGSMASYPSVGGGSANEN

[2] = biological target: T2, AtELF4, yeast two-hybrid fusion (Arabidopsis thaliana) (UniProt O04211); test: as above
T2 sequence: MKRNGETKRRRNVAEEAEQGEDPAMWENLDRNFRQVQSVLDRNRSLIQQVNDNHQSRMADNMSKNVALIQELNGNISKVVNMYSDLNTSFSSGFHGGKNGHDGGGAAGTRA

| binding [1] | binding [2] | Substance |
| --- | --- | --- |
| binds | binds | BdELF3, yeast two-hybrid fusion (Brachypodium distachyon) |
| binds | binds | SvELF3, yeast two-hybrid fusion (Setaria viridis) |

No constants are given. Whether binding was seen depends on the method and setting. A result given as binding can be weak or reduced; the word gives no strength. Where a sequence is shown, tags or fusion partners need not be part of it.
